Measured values published in PubChem BioAssay AID1347076 (National Center for Advancing Translational Sciences (NCATS), 2019).
In all, about 400,000 compounds went through this assay and about 13,000 (3.2%) were called active. The shares of active, inactive and inconclusive entries below differ from those in the screen. Calls follow the shape of the dose curve; as a rule, active = well fitted cell-killing curve with a large enough effect; inconclusive = small, poorly fitted or top-dose-only effect, or effect the other way; inactive = flat fitted curve, though single readings scatter. Where the call is inconclusive, the potency comes from a doubtful curve fit.
% is scaled to controls: 0 for no effect and ±100 for the full control effect; potency is read from the fitted curve at half-maximal effect.

Test: qHTS assay for MDR1-selective chemotherapeutics: Primary screen using the drug-selected MDR subline cells KB-V1; also: nearly all actives have a fitted effect of over 60% in size
Details: KB-V1 MDR cells viability, CellTiter-Glo, 72 h; activity change, negative = cytotoxicity: at 46.1 µM (top of the series)
In short: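 KB-V1, DMEM (no phenol red) + 10% FBS; cpd pin-transferred, titration series; 72 h, 37 degrees C; CellTiter-Glo, luminescence. Data normalized, curve-fit.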
For `O=C(Cn1nc(C(F)(F)F)c2c1CCCC2)NCCN1CCOCC1`, the Potency was inconclusive: 16.4 µM [cytotoxic, single point]. In the case of `Cc1cc(NC(=O)CCC(=O)N(Cc2ccco2)C2(C(=O)NC3CCCC3)CCC(C)CC2)no1` (stereo not drawn), the Potency is reported as inconclusive: 10.3 µM [cytotoxic, partial curve]. In the case of `COc1cc(O)c(C(CCN2CCN(c3ccccc3)CC2)c2ccc3c(c2)OCO3)c(OC)c1` (stereo not drawn), the Potency is reported as inconclusive: 29.1 µM [cytotoxic, single point]. With `Cc1ccc(NC(=O)c2oc3ccccc3c2NC(=O)C2CCCO2)cc1C` (stereo not drawn) the Potency was inconclusive: 6.51 µM [cytotoxic, partial curve]. In the case of `Cc1nc2sccn2c(=O)c1S(=O)(=O)NCC1CCN(Cc2ccc(Cl)cc2)CC1`, the Potency is reported as inconclusive: 18.4 µM [cytotoxic, single point]. With `Cc1sc2nc[nH]c(=S)c2c1-c1ccccc1` the Potency was inconclusive: 18.4 µM [cytotoxic, partial curve]. With `Cc1ccc(NC(=O)CSc2nc3ccccc3nc2Cc2ccccc2F)cc1F` the Potency was inconclusive: 16.4 µM [rising, single point]. With `Cc1nn(S(=O)(=O)c2ccc(C(C)C)cc2)c(C)c1S(=O)(=O)N1CCCCCC1` the Potency was inconclusive: 29.1 µM [rising, single point]. In the case of `COc1cccc(C2CC(c3ccccc3)Nc3ncnn32)c1` (stereo not drawn), the Potency is reported as inconclusive: 14.6 µM [cytotoxic, partial curve]. For `COc1ccccc1NC(=S)NNC(=S)Nc1ccc(OC(F)F)cc1`, the “activity change, negative = cytotoxicity” value was inactive: 7.37%. In the case of `CC(=O)Oc1ccc2ccc3ccc(C(C)=O)cc3c2c1`, the Potency is reported as inconclusive: 29.1 µM [cytotoxic, single point]. For `O=C(Nc1cccnc1)C1CCCN1S(=O)(=O)c1ccc(Cl)c(Cl)c1` (stereo not drawn), the Potency was inconclusive: 11.6 µM [cytotoxic, partial curve, poor fit]. With `C=CCN1CN(S(=O)(=O)c2cccc(Cl)c2)c2nc3ccccc3nc21` the “activity change, negative = cytotoxicity” value was inactive: 20.5%. In the case of `CC1CCCN(S(=O)(=O)c2cc3c(cc2Cl)NC(=O)CO3)C1` (stereo not drawn), the “activity change, negative = cytotoxicity” value is reported as inactive: 7.7%. For `CC(C)C1C(=O)N(Cc2cn(Cc3ccco3)nn2)CCS(=O)(=O)N1Cc1ccc(-c2ccc(Cl)c(Cl)c2)cc1` (stereo not drawn), the Potency was active: 13 µM. In the case of `CCCCN(C)C(=O)C1CCN(Cc2cccc(OCc3ccccc3)c2)CC1`, the Potency is reported as inconclusive: 29.1 µM [cytotoxic, single point]. In the case of `CC1(C)C(=O)N(OCc2ccccc2)C(C)(C)C(=O)N1OCc1ccccc1`, the Potency is reported as inconclusive: 13 µM [cytotoxic, partial curve, poor fit]. In the case of `COc1ccc(C(OCC(O)CNC(C)c2ccccc2)c2ccc(OC)cc2)cc1` (stereo not drawn), the Potency is reported as inconclusive: 14.6 µM [cytotoxic, partial curve]. For `O=C(NNc1nc2ccccc2o1)c1ccccc1`, the “activity change, negative = cytotoxicity” value was inactive: 4.72%. For `CC1CC(NC(=O)Cc2ccc(Br)cc2)CC(C)(C)C1` (stereo not drawn), the Potency was inconclusive: 29.1 µM [cytotoxic, single point]. With `Cc1cccc(N2CCN(C(=O)c3cccc(N4CCCC4=O)c3)CC2)c1C` the Potency was inconclusive: 23.1 µM [cytotoxic, single point]. For `Cc1ccc(C)c(S(=O)(=O)N2CCN(c3ncnc4sccc34)CC2)c1`, the Potency was active: 7.31 µM. With `COCCCNC(=O)c1ccc2c(c1)N=C(C)c1c(C)ccc(C)c1S2` the Potency was active: 0.0517 µM. In the case of `CC(=O)Nc1ccc(S(=O)(=O)Nc2nc(C)nc3sc(C)c(C)c23)cc1`, the Potency is reported as inconclusive: 0.0058 µM [rising, full curve, poor fit]. In the case of `CCSC1=N/C(=C\c2ccccc2)C(=O)N1`, the “activity change, negative = cytotoxicity” value is reported as inactive: 0.722%. For `O=C(CSc1nc2ccccc2c(=O)[nH]1)c1ccc(O)cc1O`, the “activity change, negative = cytotoxicity” value was inactive: 8.21%. For `C[C@]12CC[C@@H]3c4ccc(OC(=O)c5ccccc5)cc4CC[C@H]3[C@@H]1CC[C@@H]2O`, the Potency was active: 20.6 µM. For `COc1ccc(C(=O)NC(=O)NC2(C(Cl)(Cl)Cl)OCCO2)cc1`, the Potency was inconclusive: 18.4 µM [rising, single point]. For `O=C(Nc1cccc(NC(=O)c2ccco2)c1)c1ccc2c(c1)OCCO2`, the “activity change, negative = cytotoxicity” value was inactive: -15.7%. In the case of `COc1ccc(N2CCN(c3ccc(-c4nc(-c5ccccc5C)no4)cc3[N+](=O)[O-])CC2)cc1`, the Potency is reported as inconclusive: 29.1 µM [rising, single point]. With `Cc1ccc(NC(=O)N2CCC(N3CCN(Cc4ccccc4)C(=O)C3=O)CC2)cc1Cl` the Potency was inconclusive: 29.1 µM [rising, single point]. In the case of `CC(O)(c1ccccc1)c1nc(-c2ccncc2)cs1` (stereo not drawn), the Potency is reported as inconclusive: 8.2 µM [cytotoxic, partial curve, poor fit]. For `O=C(O)COc1ccccc1/C=N/NC(=O)CN1CCN(Cc2ccccc2Cl)CC1`, the activity change, negative = cytotoxicity was inconclusive: -4.04%. For `Cc1ccc(NC(=S)Nc2cccnc2)c(S(=O)(=O)N2CCCCC2)c1`, the “activity change, negative = cytotoxicity” value was inactive: -15.1%. For `Cc1ccc(C23CC4CC(CC(C(=O)NC(C)C)(C4)C2)C3)cc1`, the Potency was inconclusive: 20.6 µM [cytotoxic, single point]. In the case of `COc1cc(-c2nc(-c3ccc(NC(=O)c4ccc(Br)o4)cc3)no2)cc(OC)c1OC`, the Potency is reported as inconclusive: 18.4 µM [cytotoxic, single point]. With `CCCCN(C(=O)CSCC(=O)Nc1cccc(C)c1)c1c(N)n(Cc2ccccc2)c(=O)[nH]c1=O` the Potency was inconclusive: 10.3 µM [cytotoxic, partial curve, poor fit]. With `CSCCC(NS(=O)(=O)c1ccc(Cl)cc1)C(=O)OCC(=O)c1ccc(F)cc1` (stereo not drawn) the “activity change, negative = cytotoxicity” value was inactive: -6%. For `Cc1ccc(-c2nc3ccccc3[nH]2)cc1NC(=O)/C=C/c1ccco1`, the Potency was inconclusive: 23.1 µM [cytotoxic, partial curve]. In the case of `O=C(Cc1cccc2ccccc12)NCC(=O)N1CCN(Cc2cccc(C(F)(F)F)c2)CC1`, the “activity change, negative = cytotoxicity” value is reported as inactive: -19.8%. For `NS(=O)(=O)c1ccc(CCNC(=O)COc2ccc3c4c(c(=O)oc3c2)CCC4)cc1`, the Potency was inconclusive: 14.6 µM [rising, partial curve, poor fit]. With `Cc1cccc(-n2ncc3c(N(C)C4CCCCC4)ncnc32)c1` the “activity change, negative = cytotoxicity” value was inactive: 8.4%. For `CN(C)S(=O)(=O)c1ccc(N2C(=O)CC2(/C=C/c2ccccc2)C(=O)NC2CCCC2)cc1` (stereo not drawn), the Potency was active: 5.17 µM.
